{"source": "PubChem BioAssay AID1688", "about": "(National Center for Advancing Translational Sciences (NCATS), 2009)", "note": "The campaign covered roughly 220,000 compounds. About 2,400 (1.1%) were called active. The inconclusive results got no clear call from the source; some entries with a clear call stand among them for comparison. The call rests on the fitted dose curve; in most records, active means well fitted inhibition curve with a large enough effect; inconclusive means small, poorly fitted or top-dose-only effect, or effect the other way; inactive means no such curve, though single readings can be large or run the other way. Potencies beside an inconclusive call are fits to weak or partial responses and may not hold up. On the % scale 0 is the no-effect control and ±100 the full control effect; potency means the concentration at half of the fitted maximal effect.", "data": [{"test": "qHTS Multiplex Assay to Identify Dual Action Probes in a Cell Model of Huntington: Aggregate Formation (GFP); further: nearly all actives have a fitted effect of over 60% in size", "settings": "PC12 HttQ103-GFP aggregates, Acumen cytometry, 40 h; activity change, negative = inhibition: at 46.1 µM (top of the series) unless noted", "method_in_brief": "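Multiplexed with ATP-based cell death, this channel scores GFP aggregates in PC12 cells expressing inducible HTTex1-Q103-GFP. Induction used 100 nM tebufenozide; compounds were tested in concentration series.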", "values": [{"smiles": "CCOc1ccc2nc(SC3CC(=O)N(c4ccc(C)cc4)C3=O)sc2c1", "note": "(stereo not drawn)", "Potency": "inconclusive: 5.62 µM [inhibitor, single point]"}, {"smiles": "COc1ccc(NC(=O)CSc2nnc(NC(=O)c3ccccc3C(=O)O)s2)cc1", "activity change, negative = inhibition": "inactive: -7.99% [at 9.22 µM]"}, {"smiles": "Cc1ccc(S(=O)(=O)N2CCOC2CNC(=O)C(=O)NCc2ccco2)cc1", "note": "(stereo not drawn)", "Potency": "inconclusive: 6.31 µM [activator, single point]"}, {"smiles": "C=CCN(C(=O)c1cccc(S(=O)(=O)N2CCN(C)CC2)c1)c1nc(-c2ccccc2)cs1", "Potency": "inconclusive: 15.8 µM [inhibitor, single point]"}, {"smiles": "CCC(C)Nc1nc2c(c(=O)[nH]c(=O)n2C)n1CCC(C)C", "note": "(stereo not drawn)", "Potency": "inactive"}, {"smiles": "O=C(Cc1ccc(Cl)c(Cl)c1)Nc1cccc(S(=O)(=O)N2CCOCC2)c1", "Potency": "inconclusive: 17.8 µM [inhibitor, single point]"}, {"smiles": "Nc1nc(-c2ccccn2)nc(N)c1Cc1c(F)cccc1Cl", "Potency": "inconclusive: 22.4 µM [inhibitor, single point]"}, {"smiles": "CCc1nc(SCC(=O)N2CCN(c3ccccc3)CC2)c2oc3ccccc3c2n1", "Potency": "inconclusive: 35.5 µM [inhibitor, single point]"}, {"smiles": "O=S(=O)(O)CC(S)CS", "note": "(stereo not drawn)", "Potency": "inactive"}, {"smiles": "COc1ccccc1NS(=O)(=O)c1cccc(N=C2N=C(N)c3ccccc32)c1", "Potency": "inconclusive: 14.1 µM [activator, single point]"}, {"smiles": "Cc1ccc(NS(=O)(=O)c2cc(NC(=O)c3cc4c(s3)CCCC4)ccc2C)c(C)c1", "Potency": "inconclusive: 35.5 µM [inhibitor, single point]"}, {"smiles": "CC(=O)c1ccc(O)c(CC=C(C)C)c1", "Potency": "inconclusive: 3.98 µM [inhibitor, single point]"}, {"smiles": "CC1Cc2ccccc2N1C(=O)CSc1nc2c(c(=O)n(C)c(=O)n2C)n1Cc1ccccc1", "note": "(stereo not drawn)", "Potency": "inconclusive: 35.5 µM [inhibitor, single point]"}, {"smiles": "Cc1[nH]ccc(=O)c1OCc1ccc(Cl)cc1", "Potency": "inactive"}, {"smiles": "CCC(C(=O)NC(N)=O)c1ccccc1", "note": "(stereo not drawn)", "Potency": "inactive"}, {"smiles": "Cn1c2c(c(=O)n(C)c1=O)C(CC(=O)Nc1ccccc1)C(=O)N2", "note": "(stereo not drawn)", "Potency": "active: 5.01 µM"}, {"smiles": "Cc1ccc(C(=O)/C=C/C(=O)O)cc1", "Potency": "inconclusive: 35.5 µM [inhibitor, single point]"}, {"smiles": "CCOC(=O)N1CCC(NC(=O)c2ccc3c(c2)N(Cc2ccc(F)cc2)CCS3)CC1", "Potency": "inconclusive: 35.5 µM [inhibitor, single point]"}, {"smiles": "CCOC(=O)/C(=N/Nc1ccc(Cl)cc1)Sc1nnnn1-c1ccc(C)cc1", "Potency": "active: 2.51 µM"}, {"smiles": "CCC1CCCCN1c1nc(-c2cccc(OC)c2O)nc2ccccc12", "note": "(stereo not drawn)", "Potency": "inconclusive: 35.5 µM [inhibitor, partial curve]"}, {"smiles": "O=C(Nc1ccc(Cl)c(Cl)c1)Nc1ccc(N2CCCC2)c(S(=O)(=O)Nc2ccccc2Cl)c1", "Potency": "inconclusive: 17.8 µM [inhibitor, single point]"}, {"smiles": "Cc1cccc(OCC(=O)N/N=C/C=C/c2ccco2)c1", "Potency": "inconclusive: 35.5 µM [activator, partial curve]"}, {"smiles": "O=C1C2Sc3[nH]c(=O)sc3C(c3ccccc3)C2C(=O)N1c1ccccc1", "note": "(stereo not drawn)", "Potency": "inactive"}, {"smiles": "COC(=O)c1ccc2nc(Nc3nc4c(F)cc(F)cc4s3)sc2c1", "Potency": "active: 6.31 µM"}, {"smiles": "COCc1c(C(=O)N/N=C(/C)c2ccccc2)nnn1-c1nonc1N", "Potency": "inconclusive: 3.55 µM [activator, partial curve]"}, {"smiles": "COc1cc(C(=O)NC(=S)Nc2cccc(-c3cc4ccccc4oc3=O)c2)cc(OC)c1OC", "Potency": "inactive"}, {"smiles": "CSc1nsc(SC)c1C(=O)OCC(F)(F)F", "Potency": "inconclusive: 10 µM [inhibitor, partial curve]"}, {"smiles": "Cc1ccc(NC(=S)NCc2ccccc2)cc1S(=O)(=O)N1CCCCC1", "Potency": "inconclusive: 25.1 µM [inhibitor, single point]"}, {"smiles": "OC(CN=c1sc2ccccc2n1CC(O)COc1ccccc1)COc1ccccc1", "note": "(stereo not drawn)", "Potency": "inconclusive: 35.5 µM [inhibitor, single point]"}, {"smiles": "O=C(Nc1ccn(Cc2ccc(F)cc2)n1)c1ccncc1", "Potency": "inconclusive: 25.1 µM [inhibitor, single point]"}, {"smiles": "CCCCC(=O)NNC(=S)NC(=O)CCC", "Potency": "inactive"}, {"smiles": "CC(=O)c1ccccc1OCCOc1ncnc2sccc12", "Potency": "inconclusive: 0.794 µM [inhibitor, partial curve]"}, {"smiles": "O=C(NCCN1CCOCC1)c1cc(Sc2cccc(Cl)c2)nc2ccccc12", "Potency": "inconclusive: 25.1 µM [inhibitor, single point]"}, {"smiles": "Cc1cccc2c(=O)c(C(=O)N3CCCCCC3)c[nH]c12", "Potency": "inconclusive: 10 µM [activator, partial curve]"}, {"smiles": "CNc1ccccc1C(C)(C)c1cc(-c2cccc(Br)c2)no1", "Potency": "inconclusive: 8.91 µM [inhibitor, partial curve]"}, {"smiles": "O=C(Nc1cccc(C(F)(F)F)c1)c1cnccn1", "activity change, negative = inhibition": "inactive: -11% [at 9.22 µM]"}, {"smiles": "NC1=NC(=O)/C(=C/c2cn(Cc3ccccc3)c3ccccc23)S1", "Potency": "inconclusive: 1.26 µM [inhibitor, single point]"}, {"smiles": "CC(=O)Nc1ccc(NC(=O)Cc2sc(-c3cccnc3)nc2-c2ccc(C)cc2)cc1", "Potency": "inconclusive: 11.2 µM [activator, partial curve]"}, {"smiles": "Cc1ccc(OCCCn2cc(C#N)c3ccccc32)cc1", "Potency": "inconclusive: 28.2 µM [inhibitor, single point]"}, {"smiles": "COc1ccc(CNC(=S)NCc2ccc(OC(C)C)cc2)cc1", "Potency": "inactive"}, {"smiles": "CC(=O)Nc1ccc(NC(=O)C(C)OC(=O)c2ccccc2C(=O)c2ccc(Cl)c([N+](=O)[O-])c2)cc1", "note": "(stereo not drawn)", "Potency": "inconclusive: 14.1 µM [activator, single point]"}, {"smiles": "Cc1onc(-c2c(Cl)cccc2Cl)c1C(=O)c1c[nH]c(C(=O)NCCCN2CCOCC2)c1", "Potency": "inactive"}, {"smiles": "O=C(CSc1nnc(-c2cc3ccccc3cc2O)n1Cc1ccco1)N1CCc2ccccc2C1", "Potency": "inconclusive: 35.5 µM [inhibitor, single point]"}, {"smiles": "O=C(CN(C(=O)Cn1nnc(-c2ccc(F)cc2)n1)c1cnc2ccccc2c1)NCC1CCCO1", "note": "(stereo not drawn)", "Potency": "inconclusive: 0.708 µM [activator, partial curve]"}, {"smiles": "C#CCOC(=O)c1ccccc1C(=O)n1nnc2ccccc21", "Potency": "inconclusive: 25.1 µM [activator, single point]"}, {"smiles": "COc1cc(/C=C2\\CC/C(=C\\c3cc(OC)c(O)c(OC)c3)C2=O)cc(OC)c1O", "Potency": "inconclusive: 4.47 µM [activator, single point]"}, {"smiles": "COc1cc(/C=N/NC(=O)C2C3CCCCC32C)cc(Br)c1O", "note": "(stereo not drawn)", "Potency": "inconclusive: 35.5 µM [inhibitor, single point]"}, {"smiles": "CN1/C(=C/C(=S)NC(=O)C2(C)CC2(Cl)Cl)C(C)(C)c2ccccc21", "note": "(stereo not drawn)", "Potency": "inconclusive: 7.94 µM [inhibitor, partial curve]"}, {"smiles": "CCOc1ccc(C(C)(C)C)cc1S(=O)(=O)N1CCOCC1", "Potency": "inconclusive: 5.62 µM [activator, single point]"}, {"smiles": "CC(=O)Nc1c(I)c(C(=O)N[C@H]2[C@@H](O)[C@H](O)[C@H](CO)O[C@@H]2O)c(I)c(N(C)C(C)=O)c1I", "Potency": "inactive"}, {"smiles": "Cc1cccc(-n2c(-c3cccc([N+](=O)[O-])c3)nc3nc4ccccc4nc32)c1", "Potency": "inconclusive: 5.62 µM [inhibitor, single point]"}, {"smiles": "COc1ccc(C(=O)CCN2CCN(c3ccccc3OC)CC2)cc1", "Potency": "inconclusive: 22.4 µM [inhibitor, single point]"}, {"smiles": "COc1ccc(OC(C)C(=O)Nc2cccc([N+](=O)[O-])c2)cc1", "note": "(stereo not drawn)", "Potency": "inactive"}, {"smiles": "Cc1ccc2nc(-c3ccc(SCC(=O)Nc4nc(C)cs4)nc3)[nH]c2c1", "Potency": "inactive"}, {"smiles": "O=C(Cc1ccc(Cl)cc1Cl)Nc1cccc(S(=O)(=O)Nc2ccccc2F)c1", "Potency": "inactive"}, {"smiles": "CCC(C(=O)Nc1ccncc1)c1ccccc1", "note": "(stereo not drawn)", "Potency": "inconclusive: 11.2 µM [inhibitor, single point]"}, {"smiles": "CCc1ccc(-n2c(C)cc(/C=N/NC(=O)c3ccncc3)c2C)cc1", "Potency": "inconclusive: 15.8 µM [inhibitor, single point]"}, {"smiles": "Cc1ccc2oc(-c3cccc(NC(=O)Cc4cccs4)c3)nc2c1", "Potency": "inconclusive: 5.62 µM [inhibitor, single point]"}, {"smiles": "O=C1C2C3C=CC(C3)C2C(=O)N1c1ccc(N2CCN(c3ccccn3)CC2)c([N+](=O)[O-])c1", "note": "(stereo not drawn)", "Potency": "inconclusive: 22.4 µM [inhibitor, single point]"}, {"smiles": "Cc1ccc(-c2cc(C(=O)NCc3ccco3)no2)cc1", "Potency": "inconclusive: 0.0891 µM [inhibitor, partial curve, poor fit]"}, {"smiles": "OC1(c2cccc(C(F)(F)F)c2)CCN(Cc2nnnn2CCc2ccccc2)CC1", "Potency": "inconclusive: 35.5 µM [inhibitor, single point]"}, {"smiles": "CC(C)Cn1c2c(c(O)c(C(=O)Nc3ncccc3O)c1=O)CCCC2", "Potency": "inconclusive: 35.5 µM [inhibitor, single point]"}, {"smiles": "C#CCOC(=O)Nc1ccc(=O)n(Cc2c(Cl)cccc2Cl)c1", "Potency": "inactive"}, {"smiles": "O=C1CC(c2ccco2)Cc2nc(N3CCN(Cc4ccc5c(c4)OCO5)CC3)ncc21", "note": "(stereo not drawn)", "Potency": "inconclusive: 17.8 µM [inhibitor, single point]"}, {"smiles": "CCC(=O)Nc1cc(C)c(NC(=O)c2ccco2)cn1", "Potency": "inactive"}, {"smiles": "COC(=O)CNC(=O)COC(=O)C(Cc1ccccc1)NC(=O)c1ccco1", "note": "(stereo not drawn)", "Potency": "inactive"}, {"smiles": "Cc1ccc(/C=C2\\CCCC3=C2NC(=S)NC3c2ccc(C)cc2)cc1", "note": "(stereo not drawn)", "Potency": "inconclusive: 5.01 µM [activator, full curve, poor fit]"}, {"smiles": "O=S(=O)(NCCNc1ncc(C(F)(F)F)cc1Cl)C(F)(F)F", "Potency": "inconclusive: 11.2 µM [inhibitor, single point]"}]}]}
